From PubChem BioAssay AID651804 (National Center for Advancing Translational Sciences (NCATS), 2012)
The whole screen tested about 1,200 compounds, of which about 20 (2%) were called active. About 23% were inconclusive and are not listed. Calls follow the shape of the dose curve; as a rule, active = well fitted inhibition curve with a large enough effect; inconclusive = small, poorly fitted or top-dose-only effect; inactive = no such curve, though single readings can be large or run the other way. The list shows a part of the results.

Amino acid sequences for entries named in this document (tags omitted). A change or cut given only in a name is not applied to a line headed by its entry.
UniProt P11308: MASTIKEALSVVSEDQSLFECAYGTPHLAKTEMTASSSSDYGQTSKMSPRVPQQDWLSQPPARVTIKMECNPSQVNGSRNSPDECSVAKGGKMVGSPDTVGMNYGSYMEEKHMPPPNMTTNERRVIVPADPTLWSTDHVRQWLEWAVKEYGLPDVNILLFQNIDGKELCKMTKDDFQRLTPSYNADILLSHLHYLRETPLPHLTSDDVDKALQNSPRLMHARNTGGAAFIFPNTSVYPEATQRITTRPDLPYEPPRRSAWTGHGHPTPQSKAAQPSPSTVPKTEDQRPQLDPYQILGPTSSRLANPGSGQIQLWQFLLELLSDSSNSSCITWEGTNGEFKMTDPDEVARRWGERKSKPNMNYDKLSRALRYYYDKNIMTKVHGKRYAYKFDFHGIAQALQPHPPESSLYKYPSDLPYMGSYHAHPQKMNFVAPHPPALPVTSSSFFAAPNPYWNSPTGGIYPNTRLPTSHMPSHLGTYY

Molecular target: Transcriptional regulator ERG (Homo sapiens) (UniProt P11308)
Experiment: qHTS for Small Molecule Inhibitors of the ERG Ets/DNA interaction: HTRF assay against cherry picks
Conditions: His-ERG Ets domain with biotin-DNA; series mostly up to 154 µM; activity change, negative = inhibition: at the top concentration
Outline: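 Compounds were incubated 10 min at RT with ERG Ets domain and biotinylated DNA (each added as 200 nM solution) in pH 7.5 Tris/KCl/EDTA/DTT buffer. Binding was read as FRET (ex 320, em 615 and 665 nm) between anti-His donor and streptavidin acceptor.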

Activity change, negative = inhibition, inactive:
Oc1ccc(NCc2ccc(OCc3ccccc3)cc2)cc1 -24.2%
CCc1ccc(Nc2ncnc3nc[nH]c23)cc1 -29.9%
CC(NC(=O)c1cn(C)c2ccc(S(=O)(=O)N3CCCC3)cc2c1=O)c1ccccc1 (centres undefined) -13.9%
O=C(CSc1nnnn1-c1ccccc1)Nc1nc(-c2ccccc2)ns1 -0.955%
COc1ccc(NC(=S)NCc2ccc3c(c2)cc(C)n3C)cc1 42.5%
O=C(COC(=O)c1cc(-c2cccc3ccccc23)nc2ccccc12)NC1CCS(=O)(=O)C1 (centres undefined) 45.1%
COc1ccc(-c2noc(CSc3nc4ccccc4c(=O)n3-c3ccccc3)n2)cc1 -26.3%
CC1(C)CC(=O)/C(=C\c2cccc([N+](=O)[O-])c2)C(C)(C)N1 -6.21%
Cc1cnc(C(=O)Nc2ccccc2-c2ccc(C)o2)cn1 -25.9%
COC(=O)c1cc(NC(=O)c2c(Cl)cnn2C)cc(C(=O)OC)c1 -7.9%
Cc1ccc(OCCN(C)C(=O)c2cc(COc3ccc(F)cc3F)on2)cc1 -7.32%
O=C(NNC(=O)c1ccc(S(=O)(=O)N2CCCCC2)cc1)c1ccc(F)cc1 -25.6%
CCOc1ccc(CN2CCNC(=O)C2CC(=O)NCCCn2ccnc2)cc1 (centres undefined) -11.7%
COc1cc(CCC(=O)OCC(=O)NC2CCCC(C)C2C)cc(OC)c1OC (centres undefined) 6.68%
COc1ccc(CCN(Cc2cccs2)S(=O)(=O)c2ccc(-n3cnnn3)c(OC)c2)cc1OC -23.9%
Cc1occc1C(=O)NNS(=O)(=O)c1ccc(Cl)cc1 -23.6%
O=C1COc2ccc(S(=O)(=O)Nc3ccc4c(c3)OCO4)cc2N1 -27.1%
S=c1[nH]nc(Cc2n[nH]c(=S)n2-c2ccccc2)n1-c1ccccc1 -5.52%
CCOc1ccccc1N1CCN(C(=O)c2cc(S(=O)(=O)N(C)C)ccc2N2CCCC2)CC1 -17.2%
Cc1nnc(SCC(=O)NNC(=O)c2ccccc2)n1-c1ccccc1 -8.49%
CCC1Oc2ccccc2N(CC(=O)NC2CC2)C1=O (centres undefined) -22.8%
Cc1cc(C)cc(NC(=O)[C@H](Cc2c[nH]c3ccccc23)NC(=O)[C@@H]2Cc3ccccc3CN2)c1 -32.7%
COCCN1CCN(C(=O)C2CCC(=O)N(Cc3ccccc3OC)C2)CC1 (centres undefined) -27.5%
Cn1nnnc1-c1cc(Cl)cc(Cl)c1 -22.2%
CCc1nn2c(-c3ccco3)ccnc2c1-c1ccc(F)cc1 -20.9%
O=C(NCCc1ccc(Cl)cc1)/C(=C/c1cccnc1)NC(=O)c1ccccc1 4.83%
Cn1c(=O)c2sccc2n2c(CCCC(=O)NCc3ccco3)nnc12 -26.9%
CC(=O)Nc1cccc(C(=O)NC2CCCc3c2cnn3-c2ccc(C(C)(C)C)cc2)c1 (centres undefined) -16.8%
O=C1c2ccccc2C(=O)N1CCOc1ccccc1Br -30.6%

Part of the list above in order of count of non-hydrogen atoms, ascending.
Activity change, negative = inhibition, inactive:
O=C1c2ccccc2C(=O)N1CCOc1ccccc1Br -30.6%
O=C(NCCc1ccc(Cl)cc1)/C(=C/c1cccnc1)NC(=O)c1ccccc1 4.83%
COc1ccc(CCN(Cc2cccs2)S(=O)(=O)c2ccc(-n3cnnn3)c(OC)c2)cc1OC -23.9%
